PubChem BioAssay AID1259405 | NCATS, 2018
Aim: 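Mouse-designed siRNAs used to find CHO productivity engineering targets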 (primary screen). Cell system: Chinese hamster CHO-K1 ovary cells with stable secreted eGFP expression. Knock-down reagent: single siRNA against mouse genes, 0.8 pmol siRNA per well (2 µl of 400 nM stock). Time to read-out: 3 days. Detection: 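Percent of the per-plate non-targeting control median for intracellular GFP per well by laser scanning cytometry and for cell viability by ATP luminescence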. Direction: GFP, % of control: higher = more GFP per well, higher productivity; viability (ATP), % of control: higher = more viable cells (more ATP). Rule for the call: 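a knock-down is called active if GFP reaches 120% or more of non-targeting control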.
In all, the deposit lists about 50,000 reagents; below is a part drawn at random. Of all reagents, about 4,000 (8%) were called active. 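Mouse siRNA library applied to hamster cells; one well for each siRNA.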 Reagents against one gene are numbered here. No sequences are given here.

Gtf3c3 (GeneID 98488) #1: GFP, % of control = 60.3; viability (ATP), % of control = 75.7; Call = inactive
Gtf3c3 (GeneID 98488) #2: GFP, % of control = 121; viability (ATP), % of control = 81.7; Call = active
Gdf10 (GeneID 14560) #1: GFP, % of control = 43; viability (ATP), % of control = 36.7; Call = inactive
Gdf10 (GeneID 14560) #2: GFP, % of control = 63.5; viability (ATP), % of control = 66.4; Call = inactive
Gdf10 (GeneID 14560) #3: GFP, % of control = 34.1; viability (ATP), % of control = 35; Call = inactive
Krt74 (GeneID 406222) #1: GFP, % of control = 49.5; viability (ATP), % of control = 57; Call = inactive
Krt74 (GeneID 406222) #2: GFP, % of control = 72.5; viability (ATP), % of control = 77.9; Call = inactive
Krt74 (GeneID 406222) #3: GFP, % of control = 83.6; viability (ATP), % of control = 46; Call = inactive
Pcdhga11 (GeneID 93723) #1: GFP, % of control = 79.5; viability (ATP), % of control = 85.5; Call = inactive
Pcdhga11 (GeneID 93723) #2: GFP, % of control = 37.2; viability (ATP), % of control = 61.3; Call = inactive
Pcdhga11 (GeneID 93723) #3: GFP, % of control = 32.9; viability (ATP), % of control = 54.2; Call = inactive
Pcbd1 (GeneID 13180) #1: GFP, % of control = 49; viability (ATP), % of control = 47.9; Call = inactive
Pcbd1 (GeneID 13180) #2: GFP, % of control = 67.8; viability (ATP), % of control = 73.9; Call = inactive
Jph2 (GeneID 59091) #1: GFP, % of control = 51.8; viability (ATP), % of control = 61.9; Call = inactive
Jph2 (GeneID 59091) #2: GFP, % of control = 80.2; viability (ATP), % of control = 79.1; Call = inactive
Jph2 (GeneID 59091) #3: GFP, % of control = 51.2; viability (ATP), % of control = 82.8; Call = inactive
